Over roughly 33,000 sequences, “E-score (-0.5 to 0.5)” has its median near -0.015; the highest 2% begin near 0.3. This is one part of the list.
biological target: T1, Abf1 (UniProt P14164); experiment: PBM E-score (8-mer binding enrichment) (E-score (-0.5 to 0.5)); higher = stronger / more preferred TF binding; conditions: protein concentration: 200 nM; construct: GST-full length
T1 sequence: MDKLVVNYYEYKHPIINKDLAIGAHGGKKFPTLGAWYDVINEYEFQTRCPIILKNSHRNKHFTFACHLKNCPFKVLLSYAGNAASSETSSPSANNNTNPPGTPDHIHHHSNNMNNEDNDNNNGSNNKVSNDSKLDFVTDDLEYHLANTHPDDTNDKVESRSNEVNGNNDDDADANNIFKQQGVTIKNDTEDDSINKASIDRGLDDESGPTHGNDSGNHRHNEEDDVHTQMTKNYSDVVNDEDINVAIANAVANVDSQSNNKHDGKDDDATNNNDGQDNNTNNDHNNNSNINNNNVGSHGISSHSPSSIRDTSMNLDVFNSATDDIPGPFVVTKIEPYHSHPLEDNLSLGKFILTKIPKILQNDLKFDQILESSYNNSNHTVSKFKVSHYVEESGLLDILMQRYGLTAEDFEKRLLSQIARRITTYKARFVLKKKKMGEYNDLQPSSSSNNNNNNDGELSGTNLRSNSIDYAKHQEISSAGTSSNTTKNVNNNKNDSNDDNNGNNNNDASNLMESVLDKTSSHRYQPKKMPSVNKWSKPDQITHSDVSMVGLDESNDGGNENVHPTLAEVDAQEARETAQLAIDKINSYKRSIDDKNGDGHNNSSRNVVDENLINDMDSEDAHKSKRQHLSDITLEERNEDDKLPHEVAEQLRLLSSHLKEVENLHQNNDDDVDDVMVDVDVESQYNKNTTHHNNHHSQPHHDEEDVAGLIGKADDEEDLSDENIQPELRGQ
Outline: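 For each ungapped eight-base word taken together with its reverse complement, the Universal PBM Analysis Suite assigned an E-score. Binding data came from GST-tagged yeast transcription factors, applied at about 100-200 nM, on universal all-10-mer Agilent arrays made double-stranded by primer extension. Fluorescent anti-GST marked bound protein, and scans were normalised with masliner.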

Sequence | PBM E-score
CTATGCGC | -0.0302
AGCTCCTA | -0.253
TCTCGCAA | -0.0498
GAGCATCA | -0.154
GAGGGCTA | -0.144
TCTGATCA | 0.155
AGTAAGCA | -0.129
CAACCTTC | -0.0626
GCTTTTCC | -0.0849
AAAGTACA | 0.0707
ACTTTGAT | 0.0527
GAGTGTTA | 0.0138
GGTGCTGA | 0.0492
AAAAATAG | 0.131
AATGGTAC | -0.00546
AGCCGTCC | 0.0251
ACATCCAC | 0.084
GGCACTAA | -0.0676
CGGCAAGA | 0.109
ACGGTGCT | 0.0582
CCGGGTCG | -0.0489
CGACGCGA | -0.0138

Sequence | PBM E-score
GGCTCAGA | 0.00214
GGCATCCC | -0.0701
ACCGGATG | -0.0378
AGGATGAT | 0.284
AGCCCACT | -0.0922
ACCCGATA | 0.108
CGGCGCGA | 0.1
CCACACAA | -0.257
CGTGGTGA | 0.14
ACTAGCAA | -0.0621
CATCCAGA | -0.0615
GTCGTAGA | 0.278
AGCCCCCT | -0.225
GCTGGTAC | 0.0196
CCACGCCA | -0.172
CTTGTAGC | -0.2
ACGCGGAC | -0.0498
GGATGTCA | 0.171
CCGTGAGA | 0.171
CTCTGCTA | -0.157
ACGCAGTA | -0.106
ATCTTGCG | 0.0144

Sequence | PBM E-score
ATGCTCAA | -0.0189
CACGTTTC | -0.0663
ATCACTGG | 0.332
CAGTCGCG | 0.033
GGACACAA | 0.0272
CCTACCAC | -0.171
ATAGCGGG | -0.151
CATCATAG | -0.00083
ATGGGAAC | -0.0942
CCCTATCG | -0.234
ATTCCGAA | 0.0789
CACGGAAC | 0.214
CGTCCTTC | 0.0157
TCTAGCAA | -0.0335
AGAAAGGC | -0.114
CGTATAGA | 0.295
GCATCTAA | 0.0436
ACTTAGTC | -0.0355
GTGTTAAC | -0.0374
TCGTAGCA | 0.256
CGCCCACC | -0.127
TATAGTGA | 0.236

Quoted at random: 3 records from the list, in no set order.
Sequence | PBM E-score
GCATCTAA | 0.0436
ACGGTGCT | 0.0582
CATCATAG | -0.00083

Next part.

Sequence | PBM E-score
ACTTAAAT | 0.0333
ACTGTAAG | -0.00033
ACTTAGAC | 0.151
GCCCTACA | -0.0753
ATAAAGAT | 0.0897
AGCTTGTA | -0.2
GGAGAGAC | -0.0713
AATCGAAT | -0.016
GACTAGCA | -0.0701
GCGGCAGC | -0.18
TAACTATA | -0.0578
GCCCAGGA | -0.147
CTATAATC | 0.132
CTGCCGCA | -0.0733
CTTTAGAA | 0.0749
ACGTAGGA | 0.196
ACGCTGTA | 0.0495
GGCGAAAA | 0.00612
AGCAGAGA | -0.186
ACGAAATG | 0.209

Reference: the supplement of paper PMC3334620
